From publication PMC7738167 come the findings set out here.

These are yes or no findings as the source states them, for the method shown. Binding seen in cells or lysates may run through a third protein. Binding calls can cover weak binding; strength is not graded here. Where a sequence is shown, tags or fusion partners need not be part of it.

This test has as its target cucumber mosaic virus (Fny strain) 2a protein fused to a split YFP half (cucumber mosaic virus, strain Fny). The test is described as follows: split reporter; sYFPn and sYFPc fusions co-agroinfiltrated into N. benthamiana leaves, YFP fluorescence by confocal laser scanning microscopy.

B1: cucumber mosaic virus (Fny strain) 1a protein fused to a split YFP half (protein, UniProt P17769 1-993)
chain: MATSSFNINELVASHGDKGLLATALVDKTAHEQLEEQLQHQRRGRKVYIRNVLGVKDSEVIRNRYGGKYDLHLTQQEFAPHGLAGALRLCETLDCLDSFPSSGLRQDLVLDFGGSWVTHYLRGHNVHCCSPCLGIRDKMRHAERLMNMRKIILNDPQQFDGRQPDFCTQPAADCKVQAHFAISIHGGYDMGFRGLCEAMNAHGTTILKGTMMFDGAMMFDDQGVIPELNCQWRKIRSAFSETEDVTPLVGKLNSTVFSRVRKFKTMVAFDFINESTMSYVHDWENIKSFLTDQTYSYRGMTYGIERCVIHAGIMTYKIIGVPGMCPPELIRHCIWFPSIKDYVGLKIPASQDLVEWKTVRILTSTLRETEEIAMRCYNDKKAWMEQFKVILGVLSAKSSTIVINGMSMQSGERIDINDYHYIGFAILLHTKMKYEQLGKMYDMWNASSISKWFAALTRPLRVFFSSVVHALFPTLRPREEKEFLIKLSTFVTFNEECSFDGGEEWDVISSAAYVATQAVTDGKILAAQKAEKLAEKLAQPVSEVSDSPETSSQTPDDTADVCGREREVSELDSLSAQTRSPITRVAERATAMLEYAAYEKQLHDTTVSNLKRIWNMAGGDDKRNSLEGNLKFVFDTYFTVDPMVNIHFSTGRWMRPVPEGIVYSVGYNERGLGPKSDGELYIVNSECVICNSESLSTVTRSLQAPTGTISQVDGVAGCGKTTAIKSIFEPSTDMIVTANKKSAQDVRMALFKSSDSKEACTFVRTADSVLLNECPTVSRVLVDEVVLLHFGQLCAVMSKLKAVRAICFGDSEQIAFSSRDASFDMRFSKIIPDETSDADTTFRSPQDVVPLVRLMATKALPKGTHSKYTKWVSQSKVKRSVTSRAIASVTLVDLDSSRFYITMTQADKASLISRAKEMNLPKTFWNERIKTVHESQGISEDHVTLVRLKSTKCDLFKQFSYCLVALTRHKVTFRYEYCGVLNGDLIAECVARA
On to B1, for which the binding entry is listed as “binds”.
